The record followed here is the supplement of paper PMC12819154, “High-throughput peptide-centric local stability assay extends protein–ligand identification to membrane proteins, tissues and bacteria” (Nature Structural & Molecular Biology, 2025).

Amino acid sequences for entries named in this document (tags omitted). A change or cut given only in a name is not applied to a line headed by its entry.
UniProt Q9UBW8: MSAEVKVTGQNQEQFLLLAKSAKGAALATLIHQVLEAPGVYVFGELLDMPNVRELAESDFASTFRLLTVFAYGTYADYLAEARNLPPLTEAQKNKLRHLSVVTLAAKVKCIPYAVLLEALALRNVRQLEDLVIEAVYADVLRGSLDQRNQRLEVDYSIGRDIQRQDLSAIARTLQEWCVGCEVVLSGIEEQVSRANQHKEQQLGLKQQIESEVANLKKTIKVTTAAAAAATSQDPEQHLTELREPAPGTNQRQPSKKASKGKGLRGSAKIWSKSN
UniProt Q9P0K7: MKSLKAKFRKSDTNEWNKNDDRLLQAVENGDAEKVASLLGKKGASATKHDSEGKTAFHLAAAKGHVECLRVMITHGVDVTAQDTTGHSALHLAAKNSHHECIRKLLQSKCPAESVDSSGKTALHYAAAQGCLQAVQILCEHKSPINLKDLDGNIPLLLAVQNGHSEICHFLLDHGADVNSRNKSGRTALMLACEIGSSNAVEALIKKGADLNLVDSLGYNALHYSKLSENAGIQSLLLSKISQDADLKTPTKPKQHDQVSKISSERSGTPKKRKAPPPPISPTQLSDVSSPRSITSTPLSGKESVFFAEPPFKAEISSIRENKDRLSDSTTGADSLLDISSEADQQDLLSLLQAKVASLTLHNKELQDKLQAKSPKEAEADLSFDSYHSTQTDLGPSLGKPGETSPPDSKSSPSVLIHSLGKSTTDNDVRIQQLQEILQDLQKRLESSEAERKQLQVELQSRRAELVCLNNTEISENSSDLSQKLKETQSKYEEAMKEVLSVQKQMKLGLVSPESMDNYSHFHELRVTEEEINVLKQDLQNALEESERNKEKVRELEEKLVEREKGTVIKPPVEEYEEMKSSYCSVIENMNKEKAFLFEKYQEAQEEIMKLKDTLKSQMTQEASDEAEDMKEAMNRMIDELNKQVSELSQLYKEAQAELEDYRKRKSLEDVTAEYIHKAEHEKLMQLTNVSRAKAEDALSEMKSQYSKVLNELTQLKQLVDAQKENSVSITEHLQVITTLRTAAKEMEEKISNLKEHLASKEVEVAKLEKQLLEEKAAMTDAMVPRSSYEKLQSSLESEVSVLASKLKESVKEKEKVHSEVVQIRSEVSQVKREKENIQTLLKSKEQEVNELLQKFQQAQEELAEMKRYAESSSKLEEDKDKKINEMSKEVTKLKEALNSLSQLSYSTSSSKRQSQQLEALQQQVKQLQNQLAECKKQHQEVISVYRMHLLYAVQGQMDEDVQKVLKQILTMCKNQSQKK
UniProt Q9UGU0: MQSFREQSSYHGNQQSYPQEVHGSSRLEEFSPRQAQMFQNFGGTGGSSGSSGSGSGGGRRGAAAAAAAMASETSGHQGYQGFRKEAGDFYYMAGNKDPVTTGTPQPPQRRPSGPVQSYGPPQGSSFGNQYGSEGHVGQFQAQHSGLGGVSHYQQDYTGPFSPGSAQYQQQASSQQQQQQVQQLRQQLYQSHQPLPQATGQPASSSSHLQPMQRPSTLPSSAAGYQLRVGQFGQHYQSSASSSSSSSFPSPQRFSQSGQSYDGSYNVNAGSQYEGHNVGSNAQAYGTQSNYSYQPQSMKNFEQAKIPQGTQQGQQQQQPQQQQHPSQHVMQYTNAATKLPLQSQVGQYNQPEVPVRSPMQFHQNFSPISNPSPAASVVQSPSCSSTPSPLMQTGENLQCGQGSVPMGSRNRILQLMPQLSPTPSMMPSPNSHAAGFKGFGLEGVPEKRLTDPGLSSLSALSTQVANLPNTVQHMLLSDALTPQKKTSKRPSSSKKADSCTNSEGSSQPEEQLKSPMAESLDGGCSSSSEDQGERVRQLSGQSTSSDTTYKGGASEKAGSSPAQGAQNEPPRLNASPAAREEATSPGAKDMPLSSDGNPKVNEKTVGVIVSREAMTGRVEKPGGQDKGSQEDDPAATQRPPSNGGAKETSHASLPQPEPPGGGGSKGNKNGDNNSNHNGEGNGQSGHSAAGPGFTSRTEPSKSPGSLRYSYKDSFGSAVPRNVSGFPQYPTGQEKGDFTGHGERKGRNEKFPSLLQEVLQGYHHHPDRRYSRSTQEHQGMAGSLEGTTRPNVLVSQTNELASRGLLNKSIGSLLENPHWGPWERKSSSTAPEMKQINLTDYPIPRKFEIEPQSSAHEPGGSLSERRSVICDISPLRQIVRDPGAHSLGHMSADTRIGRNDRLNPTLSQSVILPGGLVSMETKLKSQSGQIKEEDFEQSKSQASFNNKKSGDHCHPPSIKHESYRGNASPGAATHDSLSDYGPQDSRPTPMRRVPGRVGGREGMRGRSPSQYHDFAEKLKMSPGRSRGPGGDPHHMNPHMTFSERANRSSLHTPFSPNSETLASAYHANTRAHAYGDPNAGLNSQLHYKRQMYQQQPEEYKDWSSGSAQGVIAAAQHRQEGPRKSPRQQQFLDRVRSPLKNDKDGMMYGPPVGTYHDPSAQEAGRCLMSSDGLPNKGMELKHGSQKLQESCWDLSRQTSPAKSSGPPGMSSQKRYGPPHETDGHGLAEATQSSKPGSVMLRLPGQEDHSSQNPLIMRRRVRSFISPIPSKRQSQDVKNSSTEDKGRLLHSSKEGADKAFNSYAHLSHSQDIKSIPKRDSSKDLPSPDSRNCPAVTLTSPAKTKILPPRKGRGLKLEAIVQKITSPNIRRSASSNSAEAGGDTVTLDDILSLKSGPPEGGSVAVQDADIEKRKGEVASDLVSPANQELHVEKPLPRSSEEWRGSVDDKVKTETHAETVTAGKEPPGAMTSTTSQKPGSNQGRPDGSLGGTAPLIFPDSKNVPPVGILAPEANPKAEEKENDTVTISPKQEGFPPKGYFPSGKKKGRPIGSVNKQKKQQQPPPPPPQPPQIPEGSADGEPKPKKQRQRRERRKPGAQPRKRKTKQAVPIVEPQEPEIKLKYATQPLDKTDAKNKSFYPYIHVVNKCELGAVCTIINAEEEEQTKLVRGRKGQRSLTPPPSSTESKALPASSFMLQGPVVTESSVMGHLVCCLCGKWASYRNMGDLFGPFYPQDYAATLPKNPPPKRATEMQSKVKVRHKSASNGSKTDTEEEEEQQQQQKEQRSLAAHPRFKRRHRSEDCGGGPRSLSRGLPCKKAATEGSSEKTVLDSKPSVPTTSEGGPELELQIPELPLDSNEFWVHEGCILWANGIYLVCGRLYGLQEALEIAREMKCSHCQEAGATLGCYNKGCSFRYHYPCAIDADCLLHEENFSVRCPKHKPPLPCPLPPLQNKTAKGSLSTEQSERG
UniProt Q9NYF3: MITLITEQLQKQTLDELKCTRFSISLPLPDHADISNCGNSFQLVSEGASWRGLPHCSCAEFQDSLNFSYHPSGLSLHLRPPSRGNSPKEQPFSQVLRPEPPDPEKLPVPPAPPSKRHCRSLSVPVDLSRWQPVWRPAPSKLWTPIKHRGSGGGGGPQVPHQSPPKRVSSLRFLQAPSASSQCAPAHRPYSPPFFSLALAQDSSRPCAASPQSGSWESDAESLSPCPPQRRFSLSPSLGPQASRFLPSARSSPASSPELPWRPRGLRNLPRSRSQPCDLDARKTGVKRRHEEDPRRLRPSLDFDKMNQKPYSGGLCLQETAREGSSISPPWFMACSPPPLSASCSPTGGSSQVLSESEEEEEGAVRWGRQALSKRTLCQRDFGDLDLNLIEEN
UniProt Q9UBL6: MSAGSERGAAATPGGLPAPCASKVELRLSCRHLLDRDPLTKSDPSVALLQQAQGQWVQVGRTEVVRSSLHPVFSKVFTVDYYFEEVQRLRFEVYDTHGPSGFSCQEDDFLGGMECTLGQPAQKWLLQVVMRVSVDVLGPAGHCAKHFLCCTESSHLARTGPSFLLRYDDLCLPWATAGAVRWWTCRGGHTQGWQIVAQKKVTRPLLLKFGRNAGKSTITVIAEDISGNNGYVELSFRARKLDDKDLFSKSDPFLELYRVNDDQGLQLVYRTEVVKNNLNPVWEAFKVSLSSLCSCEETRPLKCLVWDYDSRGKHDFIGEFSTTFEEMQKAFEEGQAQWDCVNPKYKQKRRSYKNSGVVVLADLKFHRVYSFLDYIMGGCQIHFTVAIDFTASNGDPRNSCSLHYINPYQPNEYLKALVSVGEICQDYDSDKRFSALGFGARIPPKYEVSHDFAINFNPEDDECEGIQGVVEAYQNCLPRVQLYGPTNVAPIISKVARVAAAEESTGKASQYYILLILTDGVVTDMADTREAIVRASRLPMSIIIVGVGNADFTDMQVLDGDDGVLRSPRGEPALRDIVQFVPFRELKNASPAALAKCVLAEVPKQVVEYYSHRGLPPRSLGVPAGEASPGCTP
UniProt Q9P016: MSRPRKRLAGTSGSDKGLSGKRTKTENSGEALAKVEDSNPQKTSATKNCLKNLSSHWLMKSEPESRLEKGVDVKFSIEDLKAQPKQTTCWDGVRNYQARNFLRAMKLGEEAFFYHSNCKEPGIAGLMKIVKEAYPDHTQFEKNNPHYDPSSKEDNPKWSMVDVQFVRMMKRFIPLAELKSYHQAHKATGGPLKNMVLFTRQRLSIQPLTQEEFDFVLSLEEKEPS
UniProt Q9P0J0, whole entry: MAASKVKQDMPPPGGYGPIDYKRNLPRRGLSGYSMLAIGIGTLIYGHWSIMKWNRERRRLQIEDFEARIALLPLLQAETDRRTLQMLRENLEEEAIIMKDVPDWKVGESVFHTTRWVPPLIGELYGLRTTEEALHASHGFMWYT
UniProt Q9P013: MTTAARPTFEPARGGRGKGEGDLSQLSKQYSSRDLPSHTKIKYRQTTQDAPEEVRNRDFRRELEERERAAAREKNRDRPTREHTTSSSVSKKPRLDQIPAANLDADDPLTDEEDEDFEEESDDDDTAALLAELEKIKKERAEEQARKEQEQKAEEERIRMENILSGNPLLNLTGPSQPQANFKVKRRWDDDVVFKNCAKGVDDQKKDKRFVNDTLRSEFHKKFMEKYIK

The list shows a part of the results. Most values lie at the level of the controls, where differences are scatter.

Compound in the test: Cc1nc(Nc2ncc(C(=O)Nc3c(C)cccc3Cl)s2)cc(N2CCN(CCO)CC2)n1 [dasatinib]
Kind of test: log2 fold change of tryptic peptide abundance, ligand vs vehicle (limited proteolysis) (log2 ratio); higher = more trypsin-susceptible (destabilized). The following applies: ligand concentration: 5 uM; sample: K562 cleared lysate.
Turning to “COPS7A (peptide sequence: QDLSAIAR, peptide start residue: 165) (UniProt Q9UBW8)”, the log2 fold change is -0.265.
With “RAI14 (peptide sequence: EVEVAKLEK, peptide start residue: 762) (UniProt Q9P0K7)”, the log2 fold change is 0.36.
With “TCF20 (peptide sequence: GFGLEGVPEKR, peptide start residue: 437) (UniProt Q9UGU0)” the figure was -0.575; with “FAM53C (peptide sequence: SLSVPVDLSR, peptide start residue: 120) (UniProt Q9NYF3)”, -0.108.
As for “DNMT3B (peptide sequence: NNNSVSSR, peptide start residue: 107) (UniProt Q9UBC3)”, the log2 fold change came to 0.386.
With “CPNE7 (peptide sequence: FSALGFGAR, peptide start residue: 433) (UniProt Q9UBL6)” the figure was -0.287; with “THYN1 (peptide sequence: TKTENSGEALAKVEDSNPQK, peptide start residue: 23) (UniProt Q9P016)”, 0.154; with “NDUFA13 (peptide sequence: IALLPLLQAETDRR, peptide start residue: 69) (UniProt Q9P0J0)”, -0.259.
On to “CWC15 (peptide sequence: KEQEQKAEEER, peptide start residue: 147) (UniProt Q9P013)”, for which the log2 fold change was found to be 0.313.
